Laboratory results taken from paper doi:10.1101/2025.03.03.641315.
Results are given in words; binding and its absence hold for the method and conditions named. Binding seen in cells or lysates may run through a third protein. Some binding calls cover weakened binding; strength is not graded here.

Protein sequences, listed by entry. Tags and fused reporters are not part of them.
UniProt Q8N5T2: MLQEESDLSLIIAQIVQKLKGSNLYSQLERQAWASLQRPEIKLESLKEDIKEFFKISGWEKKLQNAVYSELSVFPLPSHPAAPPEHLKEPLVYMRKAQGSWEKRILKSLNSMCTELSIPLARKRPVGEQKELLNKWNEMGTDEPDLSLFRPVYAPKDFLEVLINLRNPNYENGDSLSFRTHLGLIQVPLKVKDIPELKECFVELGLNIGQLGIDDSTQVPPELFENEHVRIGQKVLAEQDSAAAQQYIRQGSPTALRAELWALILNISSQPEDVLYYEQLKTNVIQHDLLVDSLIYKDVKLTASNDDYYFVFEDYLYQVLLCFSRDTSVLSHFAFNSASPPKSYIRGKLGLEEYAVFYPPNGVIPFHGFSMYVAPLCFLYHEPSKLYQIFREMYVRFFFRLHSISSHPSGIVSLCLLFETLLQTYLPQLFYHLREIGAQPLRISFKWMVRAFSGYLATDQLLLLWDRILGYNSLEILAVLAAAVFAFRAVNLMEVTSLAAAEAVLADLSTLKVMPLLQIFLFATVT
UniProt Q6NSI8: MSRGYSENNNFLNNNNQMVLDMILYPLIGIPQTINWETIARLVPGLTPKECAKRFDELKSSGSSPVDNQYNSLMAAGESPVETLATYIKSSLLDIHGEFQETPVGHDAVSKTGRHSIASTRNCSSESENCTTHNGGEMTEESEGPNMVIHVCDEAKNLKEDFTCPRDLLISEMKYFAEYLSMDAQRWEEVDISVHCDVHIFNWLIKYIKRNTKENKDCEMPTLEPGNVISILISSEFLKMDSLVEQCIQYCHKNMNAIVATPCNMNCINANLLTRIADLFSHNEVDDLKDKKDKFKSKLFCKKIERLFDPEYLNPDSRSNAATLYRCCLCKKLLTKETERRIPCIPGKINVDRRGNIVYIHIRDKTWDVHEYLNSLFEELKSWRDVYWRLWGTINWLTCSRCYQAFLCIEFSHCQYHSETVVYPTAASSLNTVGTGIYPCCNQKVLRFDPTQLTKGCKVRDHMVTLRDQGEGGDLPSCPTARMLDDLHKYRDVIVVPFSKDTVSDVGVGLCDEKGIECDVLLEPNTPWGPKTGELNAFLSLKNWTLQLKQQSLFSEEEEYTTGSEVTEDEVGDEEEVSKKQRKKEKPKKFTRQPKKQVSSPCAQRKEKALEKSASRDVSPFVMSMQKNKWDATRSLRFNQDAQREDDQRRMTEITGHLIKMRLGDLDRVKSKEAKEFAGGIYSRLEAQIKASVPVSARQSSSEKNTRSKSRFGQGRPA
UniProt Q9BSH3: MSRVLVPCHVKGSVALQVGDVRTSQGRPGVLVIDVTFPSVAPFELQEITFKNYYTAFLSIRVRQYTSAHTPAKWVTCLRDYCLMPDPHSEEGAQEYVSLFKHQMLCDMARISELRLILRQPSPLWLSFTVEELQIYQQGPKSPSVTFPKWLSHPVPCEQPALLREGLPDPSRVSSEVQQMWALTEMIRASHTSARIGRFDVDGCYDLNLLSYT
UniProt O95922: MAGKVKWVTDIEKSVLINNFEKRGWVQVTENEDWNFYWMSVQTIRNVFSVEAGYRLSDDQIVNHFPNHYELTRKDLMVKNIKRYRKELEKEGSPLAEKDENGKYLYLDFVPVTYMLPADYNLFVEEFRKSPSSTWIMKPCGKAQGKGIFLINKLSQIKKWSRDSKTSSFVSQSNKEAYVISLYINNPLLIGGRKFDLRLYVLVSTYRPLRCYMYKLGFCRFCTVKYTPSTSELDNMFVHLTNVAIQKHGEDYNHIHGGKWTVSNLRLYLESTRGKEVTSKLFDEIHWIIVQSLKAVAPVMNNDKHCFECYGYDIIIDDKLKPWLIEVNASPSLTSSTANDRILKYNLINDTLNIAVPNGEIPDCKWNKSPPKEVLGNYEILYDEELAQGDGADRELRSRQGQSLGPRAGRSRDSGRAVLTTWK
UniProt Q3SXY8: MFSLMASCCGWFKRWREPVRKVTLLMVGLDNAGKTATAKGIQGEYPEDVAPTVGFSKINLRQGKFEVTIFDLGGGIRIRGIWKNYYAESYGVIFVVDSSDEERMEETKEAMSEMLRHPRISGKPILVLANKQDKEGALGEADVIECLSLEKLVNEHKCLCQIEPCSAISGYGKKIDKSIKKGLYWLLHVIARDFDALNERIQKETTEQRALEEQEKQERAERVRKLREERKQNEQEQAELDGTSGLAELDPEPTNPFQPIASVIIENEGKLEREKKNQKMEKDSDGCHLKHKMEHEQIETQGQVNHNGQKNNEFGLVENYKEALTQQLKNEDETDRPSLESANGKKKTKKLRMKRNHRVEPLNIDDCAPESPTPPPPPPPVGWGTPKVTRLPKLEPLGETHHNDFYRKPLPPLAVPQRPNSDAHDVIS

B1: C11orf49/CSTPP1 (protein, UniProt Q9H6J7 1-331)
chain: MLSPERLALPDYEYLAQRHVLTYMEDAVCQLLENREDISQYGIARFFTEYFNSVCQGTHILFREFSFVQATPHNRVSFLRAFWRCFRTVGKNGDLLTMKEYHCLLQLLCPDFPLELTQKAARIVLMDDAMDCLMSFSDFLFAFQIQFYYSEFLDSVAAIYEDLLSGKNPNTVIVPTSSSGQHRQRPALGGAGTLEGVEASLFYQCLENLCDRHKYSCPPPALVKEALSNVQRLTFYGFLMALSKHRGINQALGALPDKGDLMHDPAMDEELERLLAQVPGLVNSVTASPEASCLPSRTPPRVGSPWRPLHHSRKVDGESDGSTEETDESET
B2: LRRC49/CSTPP2 (protein, UniProt Q8IUZ0 1-686)
chain: MIPGKYRSVSGRAANNVNCGLHLVIQTSSLPEKNKVEFKLNKDTSSFPGRLLQHDLERNYSSRQGDHINLVSSSLSSFPILQRSSEEKILYSDRLSLERQKLTVCPIINGEDHLRLLNFQHNFITRIQNISNLQKLISLDLYDNQIEEISGLSTLRCLRVLLLGKNRIKKISNLENLKSLDVLDLHGNQITKIENINHLCELRVLNLARNFLSHVDNLNGLDSLTELNLRHNQITFVRDVDNLPCLQHLFLSFNNISSFDSVSCLADSSSLSDITFDGNPIAQESWYKHTVLQNMMQLRQLDMKRITEEERRMASVLAKKEEEKKRESHKQSLLKEKKRLTINNVARQWDLQQQRVANIATNEDRKDSDSPQDPCQIDGSTLSAFPEETGPLDSGLNNALQGLSVIDTYLVEVDGDTLSLYGSGALESLDRNWSVQTAGMITTVSFTFIEFDEIVQVLPKLKIKFPNSLHLKFKETNLVMLQQFNALAQLRRIDQLTIDPQGNPVVNFTLWKYYVLFRLSHFSMQKINGTEVTQNDMIMAERLFGILAHVASSELPQYRLISILGDARKKQFRYLLESKGKKPGIINEENNDSKRLVGENTNRATLNYTTRDFYNEKLEEIKEKKKFCKTYIEDLVKEATEINMKNEALQKLWPQMFIELVRDAVIEIRNKNSYMKLCLQQITDQK
B3: TPGS1 (protein, UniProt Q6ZTW0 1-290)
chain: MAAVEKRRQAVPPPAGFTDSGRQSVSRAAGAAESEEDFLRQVGVTEMLRAALLKVLEARPEEPIAFLAHYFENMGLRSPVNGGAGEPPGQLLLQQQRLGRALWHLRLAHHSQRAAFNNNVSVAYECLSAGGRRKRPGLDGRTYSELLRRICRDGQAPEEVVAPLLRKVQCRDHEAVPLSVFRAGTLTCFVLLEFVARAGALFQLLEDSAAAVADRRVGQAVLDTLEGALQASDAAAPARFLEAGSRLGPDSLALALDRAVGGRRPSAPMTREEFLERAAALFIAKVKPVG

Biological target: GFP-TBC1D19 (stably expressed in RPE-1 cells) (UniProt Q8N5T2)
Assay: co-IP

Q: For “KIAA1841/SANBR (from UniProt Q6NSI8 1-718)”, which binding is on record?
A: binds

Q: NICN1 (from UniProt Q9BSH3 1-213) was tested. Which binding did it give?
A: binds

Q: With TTLL1 (from UniProt O95922 1-423) as the molecule, how does the binding read?
A: binds

Q: B1 was tested. Which binding did it give?
A: binds

Q: With B2 as the molecule, how does the binding read?
A: binds

Q: Which binding does the source give for B3 here?
A: binds

Biological target: GFP-TBC1D19 (transfected in 293T cells) (UniProt Q8N5T2)
Assay: co-IP

Q: “mCherry-Arl13b (from UniProt Q3SXY8 1-428)” was tested. Which binding did it give?
A: binds
